According to the supplement of paper PMC11006884:
The entries are a selection whose mix differs from that of the whole data set.

Sequences of proteins named here, by UniProt entry; tags and fusion partners are left off. A change or cut given only in a name is not applied to a line headed by its entry.
UniProt Q93052: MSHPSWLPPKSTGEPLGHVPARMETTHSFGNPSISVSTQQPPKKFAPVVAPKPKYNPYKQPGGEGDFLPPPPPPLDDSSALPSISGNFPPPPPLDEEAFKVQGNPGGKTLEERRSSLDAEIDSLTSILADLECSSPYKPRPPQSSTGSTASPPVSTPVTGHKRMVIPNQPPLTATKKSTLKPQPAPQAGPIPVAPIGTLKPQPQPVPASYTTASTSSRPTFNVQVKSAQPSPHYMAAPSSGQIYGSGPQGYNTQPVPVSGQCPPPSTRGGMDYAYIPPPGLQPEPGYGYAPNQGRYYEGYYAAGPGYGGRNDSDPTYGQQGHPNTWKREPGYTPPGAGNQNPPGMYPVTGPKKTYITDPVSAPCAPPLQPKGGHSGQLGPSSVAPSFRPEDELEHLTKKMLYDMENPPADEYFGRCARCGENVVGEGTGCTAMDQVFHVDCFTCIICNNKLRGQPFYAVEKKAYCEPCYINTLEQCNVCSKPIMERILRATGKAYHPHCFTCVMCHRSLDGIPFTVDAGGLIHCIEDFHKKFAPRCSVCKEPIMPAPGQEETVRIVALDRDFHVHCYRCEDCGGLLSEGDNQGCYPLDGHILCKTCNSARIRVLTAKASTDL
UniProt Q92576, whole entry, looked up: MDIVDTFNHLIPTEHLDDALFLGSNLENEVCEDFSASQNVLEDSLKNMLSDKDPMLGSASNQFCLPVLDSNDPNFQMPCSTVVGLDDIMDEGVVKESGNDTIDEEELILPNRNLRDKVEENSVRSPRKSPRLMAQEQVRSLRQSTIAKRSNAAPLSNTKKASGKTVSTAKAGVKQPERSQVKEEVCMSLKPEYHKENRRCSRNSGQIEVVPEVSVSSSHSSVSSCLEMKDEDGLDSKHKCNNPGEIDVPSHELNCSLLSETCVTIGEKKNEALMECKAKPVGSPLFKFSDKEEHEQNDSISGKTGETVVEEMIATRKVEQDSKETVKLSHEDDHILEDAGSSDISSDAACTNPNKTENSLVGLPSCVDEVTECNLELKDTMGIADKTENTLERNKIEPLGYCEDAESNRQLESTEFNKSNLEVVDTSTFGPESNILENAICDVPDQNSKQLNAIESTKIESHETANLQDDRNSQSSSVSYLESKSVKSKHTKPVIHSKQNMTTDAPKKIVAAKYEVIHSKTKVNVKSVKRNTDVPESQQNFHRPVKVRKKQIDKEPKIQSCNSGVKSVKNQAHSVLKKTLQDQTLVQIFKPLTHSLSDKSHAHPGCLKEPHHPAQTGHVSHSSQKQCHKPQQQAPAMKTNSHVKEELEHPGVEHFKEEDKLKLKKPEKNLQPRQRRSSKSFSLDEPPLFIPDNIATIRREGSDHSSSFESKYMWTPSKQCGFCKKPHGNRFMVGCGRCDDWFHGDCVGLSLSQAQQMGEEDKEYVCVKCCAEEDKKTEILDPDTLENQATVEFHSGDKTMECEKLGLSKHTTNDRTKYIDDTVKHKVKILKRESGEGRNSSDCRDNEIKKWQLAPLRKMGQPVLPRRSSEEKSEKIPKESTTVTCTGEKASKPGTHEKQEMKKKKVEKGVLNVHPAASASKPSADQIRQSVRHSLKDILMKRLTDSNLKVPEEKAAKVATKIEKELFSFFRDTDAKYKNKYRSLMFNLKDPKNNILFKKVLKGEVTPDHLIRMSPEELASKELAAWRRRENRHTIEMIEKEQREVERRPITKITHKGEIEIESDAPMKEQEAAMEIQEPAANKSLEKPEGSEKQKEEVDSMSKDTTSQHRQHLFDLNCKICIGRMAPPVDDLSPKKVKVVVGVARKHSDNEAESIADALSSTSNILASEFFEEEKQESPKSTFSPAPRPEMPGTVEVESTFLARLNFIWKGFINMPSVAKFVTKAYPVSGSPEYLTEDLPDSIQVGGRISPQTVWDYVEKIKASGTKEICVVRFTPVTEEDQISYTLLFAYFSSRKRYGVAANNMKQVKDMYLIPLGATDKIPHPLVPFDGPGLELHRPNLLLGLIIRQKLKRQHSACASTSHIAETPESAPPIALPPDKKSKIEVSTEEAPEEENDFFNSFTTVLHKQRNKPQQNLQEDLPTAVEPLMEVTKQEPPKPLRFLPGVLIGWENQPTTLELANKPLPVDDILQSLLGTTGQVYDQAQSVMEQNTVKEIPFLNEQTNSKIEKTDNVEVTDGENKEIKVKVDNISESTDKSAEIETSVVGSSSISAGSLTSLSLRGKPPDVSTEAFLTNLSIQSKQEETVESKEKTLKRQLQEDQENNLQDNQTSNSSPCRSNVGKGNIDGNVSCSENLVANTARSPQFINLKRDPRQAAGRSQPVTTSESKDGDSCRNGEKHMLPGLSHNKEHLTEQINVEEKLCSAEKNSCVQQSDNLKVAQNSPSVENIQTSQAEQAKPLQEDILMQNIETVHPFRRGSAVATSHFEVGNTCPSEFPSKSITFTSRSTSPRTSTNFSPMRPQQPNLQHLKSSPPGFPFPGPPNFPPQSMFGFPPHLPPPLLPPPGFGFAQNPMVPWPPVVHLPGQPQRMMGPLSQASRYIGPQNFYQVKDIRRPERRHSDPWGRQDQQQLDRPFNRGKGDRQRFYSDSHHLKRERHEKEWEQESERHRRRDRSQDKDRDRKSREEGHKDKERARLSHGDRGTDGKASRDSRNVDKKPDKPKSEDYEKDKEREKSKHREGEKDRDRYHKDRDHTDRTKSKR
UniProt Q96EZ8, whole entry: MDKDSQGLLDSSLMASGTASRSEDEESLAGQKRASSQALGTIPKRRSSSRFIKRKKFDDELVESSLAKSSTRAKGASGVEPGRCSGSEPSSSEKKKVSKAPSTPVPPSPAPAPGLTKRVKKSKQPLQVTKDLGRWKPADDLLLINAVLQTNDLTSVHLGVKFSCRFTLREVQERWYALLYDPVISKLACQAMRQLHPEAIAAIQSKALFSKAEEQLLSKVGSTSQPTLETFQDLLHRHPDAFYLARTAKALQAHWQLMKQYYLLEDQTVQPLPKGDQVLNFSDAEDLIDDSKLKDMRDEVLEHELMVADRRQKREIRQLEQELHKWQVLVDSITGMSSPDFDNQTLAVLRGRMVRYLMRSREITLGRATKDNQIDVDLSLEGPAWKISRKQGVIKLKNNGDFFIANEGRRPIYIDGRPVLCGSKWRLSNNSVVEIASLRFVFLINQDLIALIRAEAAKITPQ
UniProt Q92667: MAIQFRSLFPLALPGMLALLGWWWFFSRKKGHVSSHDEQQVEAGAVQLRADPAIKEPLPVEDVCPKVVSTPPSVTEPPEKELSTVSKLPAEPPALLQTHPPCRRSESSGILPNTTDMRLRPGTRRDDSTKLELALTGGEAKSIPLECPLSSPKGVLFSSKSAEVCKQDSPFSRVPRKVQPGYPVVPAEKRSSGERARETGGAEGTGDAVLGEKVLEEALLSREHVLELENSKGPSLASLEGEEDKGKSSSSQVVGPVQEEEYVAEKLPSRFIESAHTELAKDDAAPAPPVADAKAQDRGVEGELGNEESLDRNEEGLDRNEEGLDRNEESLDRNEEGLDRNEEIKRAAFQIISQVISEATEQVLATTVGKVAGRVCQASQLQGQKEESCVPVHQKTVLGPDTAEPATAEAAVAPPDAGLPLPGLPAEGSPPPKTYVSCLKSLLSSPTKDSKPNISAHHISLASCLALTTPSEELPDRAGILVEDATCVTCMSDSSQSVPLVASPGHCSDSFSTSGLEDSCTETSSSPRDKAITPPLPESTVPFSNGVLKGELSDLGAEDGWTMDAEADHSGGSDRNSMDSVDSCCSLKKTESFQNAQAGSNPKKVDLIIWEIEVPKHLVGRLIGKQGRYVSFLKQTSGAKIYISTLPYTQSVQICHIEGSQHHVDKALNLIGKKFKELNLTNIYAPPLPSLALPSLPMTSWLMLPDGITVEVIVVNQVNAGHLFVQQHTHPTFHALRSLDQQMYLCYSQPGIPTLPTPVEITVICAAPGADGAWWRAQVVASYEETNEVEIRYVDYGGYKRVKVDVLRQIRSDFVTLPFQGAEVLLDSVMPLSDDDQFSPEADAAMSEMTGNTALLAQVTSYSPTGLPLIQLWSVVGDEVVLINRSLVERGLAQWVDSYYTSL
UniProt Q96F86: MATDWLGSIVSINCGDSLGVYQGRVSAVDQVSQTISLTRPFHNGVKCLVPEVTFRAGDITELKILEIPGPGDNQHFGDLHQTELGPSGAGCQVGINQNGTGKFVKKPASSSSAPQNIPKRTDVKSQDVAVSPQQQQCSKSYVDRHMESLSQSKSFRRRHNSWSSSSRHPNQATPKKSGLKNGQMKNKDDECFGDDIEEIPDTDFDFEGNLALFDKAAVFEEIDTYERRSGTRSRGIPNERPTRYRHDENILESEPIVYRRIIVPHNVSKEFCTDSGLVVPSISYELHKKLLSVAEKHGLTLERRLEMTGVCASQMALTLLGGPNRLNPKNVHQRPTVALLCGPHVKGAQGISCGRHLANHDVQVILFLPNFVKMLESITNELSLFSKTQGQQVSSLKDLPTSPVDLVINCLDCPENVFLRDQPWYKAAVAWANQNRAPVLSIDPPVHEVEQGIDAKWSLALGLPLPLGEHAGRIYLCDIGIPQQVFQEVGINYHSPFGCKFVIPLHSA
UniProt Q969Z0: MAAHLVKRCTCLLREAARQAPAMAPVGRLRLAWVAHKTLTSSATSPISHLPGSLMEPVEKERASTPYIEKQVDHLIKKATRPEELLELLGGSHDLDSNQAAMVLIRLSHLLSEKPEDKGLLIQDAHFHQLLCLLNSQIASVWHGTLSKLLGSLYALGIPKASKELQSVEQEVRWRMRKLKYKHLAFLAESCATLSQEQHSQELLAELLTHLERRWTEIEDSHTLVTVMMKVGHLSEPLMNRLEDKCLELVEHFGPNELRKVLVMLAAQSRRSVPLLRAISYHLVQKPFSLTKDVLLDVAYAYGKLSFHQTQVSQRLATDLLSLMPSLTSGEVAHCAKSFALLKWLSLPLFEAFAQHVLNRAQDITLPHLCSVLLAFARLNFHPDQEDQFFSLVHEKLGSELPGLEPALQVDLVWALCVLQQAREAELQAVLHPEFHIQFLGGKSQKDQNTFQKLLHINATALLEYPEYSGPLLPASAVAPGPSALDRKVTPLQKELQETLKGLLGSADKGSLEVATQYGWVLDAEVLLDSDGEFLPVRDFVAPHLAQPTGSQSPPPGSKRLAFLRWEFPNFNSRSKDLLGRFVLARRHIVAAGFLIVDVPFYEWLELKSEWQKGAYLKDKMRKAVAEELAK
UniProt Q96HA7: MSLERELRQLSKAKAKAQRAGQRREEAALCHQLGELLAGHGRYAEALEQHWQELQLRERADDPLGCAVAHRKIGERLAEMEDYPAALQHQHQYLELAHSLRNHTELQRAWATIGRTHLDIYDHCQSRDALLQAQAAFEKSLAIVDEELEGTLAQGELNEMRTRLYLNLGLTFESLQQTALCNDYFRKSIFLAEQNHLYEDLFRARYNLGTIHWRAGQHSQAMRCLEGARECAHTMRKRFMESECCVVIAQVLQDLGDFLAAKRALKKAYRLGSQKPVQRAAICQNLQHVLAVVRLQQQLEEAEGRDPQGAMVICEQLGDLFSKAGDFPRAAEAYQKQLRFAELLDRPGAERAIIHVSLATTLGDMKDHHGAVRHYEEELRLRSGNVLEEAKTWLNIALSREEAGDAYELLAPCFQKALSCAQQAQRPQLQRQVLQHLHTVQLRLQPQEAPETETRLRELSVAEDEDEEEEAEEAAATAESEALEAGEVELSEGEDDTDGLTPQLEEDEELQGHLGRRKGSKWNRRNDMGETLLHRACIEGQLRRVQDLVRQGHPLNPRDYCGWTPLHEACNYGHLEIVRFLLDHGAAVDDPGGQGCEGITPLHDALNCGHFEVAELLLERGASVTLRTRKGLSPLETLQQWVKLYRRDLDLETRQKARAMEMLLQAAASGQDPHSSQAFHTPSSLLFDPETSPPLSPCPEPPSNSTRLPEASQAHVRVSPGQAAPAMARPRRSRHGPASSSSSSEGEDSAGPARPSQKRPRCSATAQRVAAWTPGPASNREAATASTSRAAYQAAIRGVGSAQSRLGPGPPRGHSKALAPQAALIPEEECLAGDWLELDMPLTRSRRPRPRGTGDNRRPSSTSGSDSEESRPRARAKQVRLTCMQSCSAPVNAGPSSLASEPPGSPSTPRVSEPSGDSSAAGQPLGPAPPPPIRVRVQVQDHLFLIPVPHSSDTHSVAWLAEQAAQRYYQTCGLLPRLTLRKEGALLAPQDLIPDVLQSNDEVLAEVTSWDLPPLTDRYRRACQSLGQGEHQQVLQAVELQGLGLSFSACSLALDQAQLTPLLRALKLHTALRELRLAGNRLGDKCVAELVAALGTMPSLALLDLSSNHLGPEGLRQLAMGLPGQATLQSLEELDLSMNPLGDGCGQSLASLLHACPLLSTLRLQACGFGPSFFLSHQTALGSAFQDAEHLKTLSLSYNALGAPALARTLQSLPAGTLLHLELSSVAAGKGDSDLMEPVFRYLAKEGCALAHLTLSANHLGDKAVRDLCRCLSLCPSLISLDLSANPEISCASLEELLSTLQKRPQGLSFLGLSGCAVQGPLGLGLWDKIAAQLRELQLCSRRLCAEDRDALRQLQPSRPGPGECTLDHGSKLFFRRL

Compound: COC(=O)C#Cc1ccccc1 [methyl 3-phenylpropiolate]
Test: log2 ratio of iodoacetamide-alkyne labeling of the cysteine site, DMSO over compound (competition); higher = stronger covalent engagement of the cysteine by the compound, active = 1 or more
Conditions: 500 µM; treatment time 1 h; system: HEK293T cell lysate
In short: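 Electrophile (500 µM) or vehicle was added to HEK293T lysate (2 mg/mL) for 1 h at ambient temperature before iodoacetamide alkyne labelling (1 h) and click coupling to sCIP-TMT reagents. After pooling, overnight trypsin digestion at 37 °C, streptavidin enrichment and acid elution, peptides were measured by Orbitrap Eclipse LC-MS/MS with FAIMS and quantified in FragPipe. Each cysteine's log2 competition ratio compares mean control-channel with mean compound-channel reporter intensity, control over compound. Data came from duplicate channels across three replicates, excluding cysteines quantified in only one replicate.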

log2 ratio of iodoacetamide-alkyne labeling, inactive:
USP7 C510 (UniProt Q93009) 0.132
USP7 C223 (UniProt Q93009) 0.27
DPF2 C298 (UniProt Q92785) 0.175
LPP C524 (UniProt Q93052) 0.117
UniProt Q92616_C246 0.0435
PDXP C26 (UniProt Q96GD0) 0.0486
PHF3 C627 (UniProt Q92576) 0.687
MCRS1 C84 (UniProt Q96EZ8) 0.916
UniProt Q92616_C648 0.135
AKAP1 C102 (UniProt Q92667) 0.334
EDC3 C477 (UniProt Q96F86) 0.0883
TBRG4 C246 (UniProt Q969Z0) 0.063
UniProt Q96EY5_C33 -0.0646
PDXP C91 (UniProt Q96GD0) 0.0378
TONSL C283 (UniProt Q96HA7) 0.128
